Measured values as given in the supplement of paper PMC10849652.
Some of the results follow.

Chains of the proteins cited; added tags and fusions are not shown. Lines headed by an entry give the natural chain unless they say otherwise; changes in a name come on top.
UniProt Q16581: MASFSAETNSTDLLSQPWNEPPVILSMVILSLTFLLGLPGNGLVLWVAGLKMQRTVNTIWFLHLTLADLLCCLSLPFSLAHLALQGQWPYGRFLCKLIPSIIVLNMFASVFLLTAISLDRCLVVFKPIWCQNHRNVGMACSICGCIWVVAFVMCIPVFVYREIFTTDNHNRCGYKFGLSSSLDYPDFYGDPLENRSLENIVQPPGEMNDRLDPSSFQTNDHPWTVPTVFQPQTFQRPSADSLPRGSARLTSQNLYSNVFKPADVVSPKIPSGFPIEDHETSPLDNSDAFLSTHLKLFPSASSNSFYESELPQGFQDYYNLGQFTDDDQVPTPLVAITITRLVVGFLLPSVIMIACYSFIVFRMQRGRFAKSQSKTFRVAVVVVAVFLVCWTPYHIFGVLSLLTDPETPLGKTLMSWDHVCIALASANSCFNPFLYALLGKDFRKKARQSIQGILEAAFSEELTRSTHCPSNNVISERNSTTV
UniProt Q9GZU0: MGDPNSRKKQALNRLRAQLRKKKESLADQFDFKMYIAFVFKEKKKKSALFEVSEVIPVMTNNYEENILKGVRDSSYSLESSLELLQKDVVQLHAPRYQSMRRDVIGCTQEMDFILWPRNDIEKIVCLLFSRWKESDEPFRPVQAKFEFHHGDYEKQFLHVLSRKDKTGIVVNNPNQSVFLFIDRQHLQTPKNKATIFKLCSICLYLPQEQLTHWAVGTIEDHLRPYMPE
UniProt Q96HA4: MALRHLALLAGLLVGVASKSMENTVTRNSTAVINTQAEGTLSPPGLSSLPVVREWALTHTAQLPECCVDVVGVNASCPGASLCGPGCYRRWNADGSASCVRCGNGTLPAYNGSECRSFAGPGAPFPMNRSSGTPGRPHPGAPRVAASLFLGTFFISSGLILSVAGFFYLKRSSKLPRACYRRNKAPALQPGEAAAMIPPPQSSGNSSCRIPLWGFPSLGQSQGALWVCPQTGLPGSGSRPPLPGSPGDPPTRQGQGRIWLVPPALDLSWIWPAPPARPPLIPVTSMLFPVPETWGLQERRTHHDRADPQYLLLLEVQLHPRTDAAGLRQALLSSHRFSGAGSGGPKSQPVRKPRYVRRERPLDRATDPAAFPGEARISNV
UniProt Q13137: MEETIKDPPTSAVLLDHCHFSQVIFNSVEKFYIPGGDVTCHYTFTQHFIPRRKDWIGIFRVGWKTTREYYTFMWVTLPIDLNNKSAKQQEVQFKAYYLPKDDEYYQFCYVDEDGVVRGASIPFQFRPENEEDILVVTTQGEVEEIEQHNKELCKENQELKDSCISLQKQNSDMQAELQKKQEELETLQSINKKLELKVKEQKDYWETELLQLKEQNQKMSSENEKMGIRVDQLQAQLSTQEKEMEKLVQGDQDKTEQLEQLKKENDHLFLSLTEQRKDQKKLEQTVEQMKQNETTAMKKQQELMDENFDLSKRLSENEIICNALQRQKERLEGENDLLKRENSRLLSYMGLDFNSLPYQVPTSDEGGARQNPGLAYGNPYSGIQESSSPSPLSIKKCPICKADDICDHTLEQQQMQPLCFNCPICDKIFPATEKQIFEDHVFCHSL
UniProt Q9NZP8: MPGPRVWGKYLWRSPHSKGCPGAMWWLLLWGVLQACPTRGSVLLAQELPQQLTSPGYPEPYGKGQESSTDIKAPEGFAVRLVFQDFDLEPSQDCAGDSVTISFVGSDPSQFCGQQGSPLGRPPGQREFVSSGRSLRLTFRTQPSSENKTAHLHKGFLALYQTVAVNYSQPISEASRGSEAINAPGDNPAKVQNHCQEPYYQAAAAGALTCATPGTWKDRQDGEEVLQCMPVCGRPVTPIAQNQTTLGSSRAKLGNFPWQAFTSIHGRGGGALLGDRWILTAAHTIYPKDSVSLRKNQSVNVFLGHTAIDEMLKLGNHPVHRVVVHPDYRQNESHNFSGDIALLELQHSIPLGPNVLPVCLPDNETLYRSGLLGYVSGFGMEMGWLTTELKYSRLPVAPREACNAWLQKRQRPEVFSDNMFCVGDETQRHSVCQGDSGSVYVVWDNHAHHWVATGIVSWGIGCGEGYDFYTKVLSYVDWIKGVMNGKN
UniProt Q96L46: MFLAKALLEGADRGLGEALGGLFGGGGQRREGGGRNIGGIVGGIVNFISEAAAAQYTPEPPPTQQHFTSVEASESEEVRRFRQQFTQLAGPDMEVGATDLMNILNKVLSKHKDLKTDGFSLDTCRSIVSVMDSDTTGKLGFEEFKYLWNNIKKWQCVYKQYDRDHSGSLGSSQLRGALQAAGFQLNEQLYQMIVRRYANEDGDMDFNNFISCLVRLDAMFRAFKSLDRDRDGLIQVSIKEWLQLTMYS
UniProt Q9BVC5: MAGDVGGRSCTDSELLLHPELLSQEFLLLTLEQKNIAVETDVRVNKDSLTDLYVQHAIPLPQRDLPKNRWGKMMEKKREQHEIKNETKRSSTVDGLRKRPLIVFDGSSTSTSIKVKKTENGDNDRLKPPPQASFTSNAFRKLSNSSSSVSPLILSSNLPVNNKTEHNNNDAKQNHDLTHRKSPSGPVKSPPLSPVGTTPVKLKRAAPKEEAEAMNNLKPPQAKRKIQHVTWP
UniProt Q5U649: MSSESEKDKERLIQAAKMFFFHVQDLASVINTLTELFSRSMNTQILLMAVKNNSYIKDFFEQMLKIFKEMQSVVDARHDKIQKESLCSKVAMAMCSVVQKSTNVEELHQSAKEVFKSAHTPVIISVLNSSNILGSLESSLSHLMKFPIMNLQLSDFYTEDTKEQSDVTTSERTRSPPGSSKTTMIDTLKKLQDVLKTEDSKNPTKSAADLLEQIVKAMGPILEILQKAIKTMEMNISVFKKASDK
UniProt Q9H6X5: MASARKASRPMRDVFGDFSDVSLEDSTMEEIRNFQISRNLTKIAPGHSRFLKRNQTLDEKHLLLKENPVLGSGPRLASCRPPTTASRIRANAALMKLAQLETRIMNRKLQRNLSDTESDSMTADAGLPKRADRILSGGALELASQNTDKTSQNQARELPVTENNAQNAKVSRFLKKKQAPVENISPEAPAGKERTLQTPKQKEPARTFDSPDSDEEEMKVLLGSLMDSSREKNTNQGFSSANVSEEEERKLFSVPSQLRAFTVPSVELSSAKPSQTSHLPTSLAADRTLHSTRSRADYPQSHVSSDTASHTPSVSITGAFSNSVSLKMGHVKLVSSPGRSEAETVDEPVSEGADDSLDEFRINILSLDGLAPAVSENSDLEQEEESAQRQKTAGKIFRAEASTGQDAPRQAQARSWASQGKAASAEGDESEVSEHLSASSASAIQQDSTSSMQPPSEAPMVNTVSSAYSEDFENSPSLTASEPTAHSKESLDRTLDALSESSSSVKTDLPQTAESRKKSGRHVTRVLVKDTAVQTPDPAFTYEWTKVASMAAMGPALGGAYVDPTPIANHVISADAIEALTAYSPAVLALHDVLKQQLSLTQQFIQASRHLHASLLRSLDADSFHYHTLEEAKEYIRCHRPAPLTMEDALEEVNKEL
UniProt Q86VG3: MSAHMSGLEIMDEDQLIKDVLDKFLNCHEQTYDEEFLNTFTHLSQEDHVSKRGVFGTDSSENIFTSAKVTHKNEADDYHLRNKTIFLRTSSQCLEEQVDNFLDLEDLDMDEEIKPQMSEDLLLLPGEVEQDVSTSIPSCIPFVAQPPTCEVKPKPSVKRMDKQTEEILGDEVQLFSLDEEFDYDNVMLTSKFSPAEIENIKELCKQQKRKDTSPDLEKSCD
UniProt Q5SQH8: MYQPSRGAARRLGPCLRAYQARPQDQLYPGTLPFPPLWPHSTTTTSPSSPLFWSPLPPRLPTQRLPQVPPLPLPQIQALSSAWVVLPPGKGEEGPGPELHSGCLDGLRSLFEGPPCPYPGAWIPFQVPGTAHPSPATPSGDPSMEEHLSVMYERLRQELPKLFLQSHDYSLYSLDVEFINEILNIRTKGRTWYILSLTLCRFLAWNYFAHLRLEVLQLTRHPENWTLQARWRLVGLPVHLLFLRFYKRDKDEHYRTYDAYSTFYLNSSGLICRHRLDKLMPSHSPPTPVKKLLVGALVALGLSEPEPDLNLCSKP
UniProt A1L170: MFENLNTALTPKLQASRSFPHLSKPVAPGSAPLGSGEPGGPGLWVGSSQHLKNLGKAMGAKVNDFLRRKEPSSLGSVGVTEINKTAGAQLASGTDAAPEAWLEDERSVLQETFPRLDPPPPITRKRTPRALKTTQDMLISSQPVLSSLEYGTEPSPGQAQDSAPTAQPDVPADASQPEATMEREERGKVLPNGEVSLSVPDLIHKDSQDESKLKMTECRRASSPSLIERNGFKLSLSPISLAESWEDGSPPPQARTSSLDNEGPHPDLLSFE
UniProt Q504U0: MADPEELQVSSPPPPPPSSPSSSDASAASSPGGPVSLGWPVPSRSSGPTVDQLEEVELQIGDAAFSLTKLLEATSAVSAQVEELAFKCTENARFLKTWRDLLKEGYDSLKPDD
UniProt Q99622: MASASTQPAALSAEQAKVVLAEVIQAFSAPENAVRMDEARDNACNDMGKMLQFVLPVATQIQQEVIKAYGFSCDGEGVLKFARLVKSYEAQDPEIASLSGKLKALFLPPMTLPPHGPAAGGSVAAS
UniProt Q8N3J3: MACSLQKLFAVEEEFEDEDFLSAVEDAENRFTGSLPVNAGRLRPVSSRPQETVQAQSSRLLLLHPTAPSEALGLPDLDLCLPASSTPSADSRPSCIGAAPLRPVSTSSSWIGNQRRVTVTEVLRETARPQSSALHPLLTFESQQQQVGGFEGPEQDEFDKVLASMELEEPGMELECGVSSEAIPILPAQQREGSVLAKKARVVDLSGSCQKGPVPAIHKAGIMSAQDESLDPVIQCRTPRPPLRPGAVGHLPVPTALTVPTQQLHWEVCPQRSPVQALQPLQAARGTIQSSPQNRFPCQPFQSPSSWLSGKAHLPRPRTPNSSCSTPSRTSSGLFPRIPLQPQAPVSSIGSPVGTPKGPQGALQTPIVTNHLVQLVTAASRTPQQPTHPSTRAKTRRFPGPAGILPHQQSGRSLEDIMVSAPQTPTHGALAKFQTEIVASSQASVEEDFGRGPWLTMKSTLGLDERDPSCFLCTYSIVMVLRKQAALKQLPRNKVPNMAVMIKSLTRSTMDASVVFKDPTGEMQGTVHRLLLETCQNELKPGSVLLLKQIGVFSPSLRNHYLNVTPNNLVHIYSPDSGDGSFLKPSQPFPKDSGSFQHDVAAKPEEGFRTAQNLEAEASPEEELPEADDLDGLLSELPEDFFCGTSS
UniProt Q9NQ89: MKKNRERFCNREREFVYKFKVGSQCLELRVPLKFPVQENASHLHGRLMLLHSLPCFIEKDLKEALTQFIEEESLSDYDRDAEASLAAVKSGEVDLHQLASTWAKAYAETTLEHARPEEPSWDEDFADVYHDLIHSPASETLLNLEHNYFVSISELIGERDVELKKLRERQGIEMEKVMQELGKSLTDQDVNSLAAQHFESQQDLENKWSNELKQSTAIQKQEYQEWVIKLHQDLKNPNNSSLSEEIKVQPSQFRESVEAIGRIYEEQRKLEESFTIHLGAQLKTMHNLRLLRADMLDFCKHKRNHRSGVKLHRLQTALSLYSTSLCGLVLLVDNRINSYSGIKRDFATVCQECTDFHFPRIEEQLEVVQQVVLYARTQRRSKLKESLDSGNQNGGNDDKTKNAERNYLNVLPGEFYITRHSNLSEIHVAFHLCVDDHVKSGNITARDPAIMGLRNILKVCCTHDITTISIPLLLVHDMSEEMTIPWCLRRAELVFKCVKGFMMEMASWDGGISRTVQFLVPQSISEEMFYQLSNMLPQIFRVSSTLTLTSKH
UniProt P23280: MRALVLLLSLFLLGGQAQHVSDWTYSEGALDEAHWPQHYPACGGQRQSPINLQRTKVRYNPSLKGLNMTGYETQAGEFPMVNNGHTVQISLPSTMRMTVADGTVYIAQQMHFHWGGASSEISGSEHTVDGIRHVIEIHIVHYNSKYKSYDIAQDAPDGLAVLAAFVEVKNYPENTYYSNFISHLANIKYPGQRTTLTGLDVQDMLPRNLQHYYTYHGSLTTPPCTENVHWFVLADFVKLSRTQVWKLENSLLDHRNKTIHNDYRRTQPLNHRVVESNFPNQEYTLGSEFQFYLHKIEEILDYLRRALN
UniProt Q96MH7: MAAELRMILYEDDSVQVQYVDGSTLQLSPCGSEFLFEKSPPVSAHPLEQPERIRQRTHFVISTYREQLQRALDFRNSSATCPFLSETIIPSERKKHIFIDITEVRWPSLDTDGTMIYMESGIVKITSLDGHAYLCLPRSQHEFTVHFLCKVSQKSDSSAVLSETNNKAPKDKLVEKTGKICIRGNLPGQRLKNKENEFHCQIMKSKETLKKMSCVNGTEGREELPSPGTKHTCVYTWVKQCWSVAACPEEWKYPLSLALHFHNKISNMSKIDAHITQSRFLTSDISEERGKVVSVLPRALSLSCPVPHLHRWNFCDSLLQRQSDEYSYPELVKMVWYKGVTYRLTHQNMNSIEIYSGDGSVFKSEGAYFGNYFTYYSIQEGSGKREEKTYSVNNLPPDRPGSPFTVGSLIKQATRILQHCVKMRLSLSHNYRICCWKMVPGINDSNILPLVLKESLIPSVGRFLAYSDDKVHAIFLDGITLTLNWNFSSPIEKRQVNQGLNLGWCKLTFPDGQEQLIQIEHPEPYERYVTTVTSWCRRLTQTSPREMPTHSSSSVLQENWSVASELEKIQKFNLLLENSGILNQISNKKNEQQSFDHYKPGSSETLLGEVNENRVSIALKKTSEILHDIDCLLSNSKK

What follows are targets tested with CN1CC[C@H](c2c(O)cc(O)c3c(=O)cc(-c4ccccc4Cl)oc23)[C@H](O)C1 [alvocidib] (assay: log2 fold change, soluble protein after heating vs DMSO (PISA); higher = thermal stabilisation; K562 lysate, 10 uM; active = over 0.2 and 3.5 SD of the protein, either way, in both replicates (recomputed)).
Method in brief: (§1)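 To prepare the extract, K562 pellets were dounce-homogenised in PBS pH 7.4 with 1 mM MgCl2, giving crude material at 1 mg/mL protein. This was treated with 10 μM compound for 30 min, then heated in aliquots for 3 min over 48°C-58°C before pooling and addition of NP-40 to 0.5% at 4°C. Centrifugation at 21,000xg for 90 min left soluble protein in the supernatant, which TMTpro 16plex LC-MS/MS quantified with equalised channel sums. Results are log-two fold changes in thermal stability compared with solvent controls, from duplicates.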

log2 fold change, inactive:
C3AR1 (UniProt Q16581) 0.055, C6orf62 (UniProt Q9GZU0) -0.105, C19orf57 (UniProt Q0VDD7) 0.116, CA1 (UniProt E5RIF9) -0.199, C1orf159 isoform 4 (UniProt Q96HA4) -0.081, CALCOCO2 isoform 5 (UniProt Q13137) -0.11, C1RL (UniProt Q9NZP8) 0.017

Each target was assayed with CN1CCc2c(c3ccccc3n2Cc2ccc(C(=O)NO)cc2)C1 [Tubastatin A] in the same assay as above.
Method in brief: as §1

log2 fold change, inactive:
CAPNS2 (UniProt Q96L46) 0.153, C2orf49 isoform 2 (UniProt Q9BVC5) 0.005, CAMKMT (UniProt Q7Z624) -0.092, C12orf60 (UniProt Q5U649) 0.006, CAND1 (UniProt F5H6I6) 0.082, C16orf70 (UniProt Q9BSU1) 0.075, C19orf44 (UniProt Q9H6X5) -0.304, C11orf74 (UniProt Q86VG3) -0.066, CAPNS1 (UniProt K7ES78) -0.074, C6orf136 isoform 4 (UniProt Q5SQH8) -0.145, C1orf109 (UniProt Q9NX04) -0.351, C1orf226 isoform 2 (UniProt A1L170) 0.183, CA2 (UniProt P00918) 0.138, C4orf46 (UniProt Q504U0) -0.274, C19orf12 (UniProt Q9NSK7) 0.031

What follows are targets tested with CNC(=O)C1=CC=CC=C1NC2=NC(=NC=C2Cl)NC3=C(C=C(C=C3)N4CCOCC4)OC in the same assay as above.
Method in brief: as §1

log2 fold change, inactive:
C12orf60 (UniProt Q5U649) 0.05, C12orf57 (UniProt Q99622) -0.099, CAND1 (UniProt F5H6I6) 0.036, C17orf53 (UniProt Q8N3J3) -0.083, C16orf70 (UniProt Q9BSU1) 0.082, C11orf74 (UniProt Q86VG3) -0.088, CAPNS1 (UniProt K7ES78) 0.001, C6orf136 isoform 4 (UniProt Q5SQH8) 0.048, C1orf109 (UniProt Q9NX04) 0.093, C12orf4 (UniProt Q9NQ89) -0.218, CA6 (UniProt P23280) -0.125, CA2 (UniProt P00918) -0.036, C4orf46 (UniProt Q504U0) 0.152, C5orf34 (UniProt Q96MH7) -0.18
